Data taken from article PMC7261183.

B1: wild-type Ocr (untagged, produced from plasmid) (protein, UniProt P03775 1-117)
chain: MAMSNMTYNNVFDHAYEMLKENIRYDDIRDTDDLHDAIHMAADNAVPHYYADIFSVMASEGIDLEFEDSGLMPDTKDVIRILQARIYEQLTIDLWEDAEDLLNEYLEEVEEYEEDEE
B2: Ocr synthesized in the course of infection with wild-type T7 (protein, UniProt P03775 1-117)
chain: B1 chain

Legend:
[1] = target: BrxB with C-terminal Strep-tag II (Escherichia coli HS); test: pull-down; Strep-tagged protein and candidate partner produced in E. coli BW25113 from compatible plasmids (BREX- or BREX+ cells); clarified lysate on a StrepTrap HP column, washed with buffer A (150 mM NaCl, 1 mM EDTA, 100 mM Tris-HCl pH 8.0), eluted with desthiobiotin; SDS-PAGE, bands identified by MALDI-TOF mass spectrometry
[2] = target: BrxL with C-terminal Strep-tag II (Escherichia coli HS); test: as above
[3] = target: BrxZ with C-terminal Strep-tag II (Escherichia coli HS); test: as above
[4] = target: BrxZ with C-terminal Strep-tag II (Escherichia coli HS); test: pull-down; BW25113 cells with a BREX cluster carrying Strep-tagged BrxX or BrxZ, infected with wild-type T7 at MOI = 1 before harvest; clarified lysate on a StrepTrap HP column, buffer A (150 mM NaCl, 1 mM EDTA, 100 mM Tris-HCl pH 8.0), eluted with desthiobiotin; SDS-PAGE, bands identified by MALDI-TOF mass spectrometry

Row | binding [1] | binding [2] | binding [3] | binding [4] | Binder
1 | no binding | no binding | no binding | – | B1
2 | – | – | – | no binding | B2

Results are given in words; binding and its absence hold for the method and conditions named. Binding seen in cells or lysates may run through a third protein. For some of these results: Sequences can lack the tags named with a protein.
